From PubChem BioAssay AID330 (DTP/NCI, 2004)
The list shows only some results of the screen, not a fair sample: it gathers tests that were run many times, whatever their T/C, doses with no T/C, and many T/C values between a quarter and a half above the control. Further doses and runs are listed elsewhere. T/C gives the treated animals as a percentage of the vehicle group. Some entries give survivors of the animals treated and no T/C: the source holds a T/C of zero for them, seemingly a mark for toxic or unscored doses. Some survivor counts are full or nearly so, which does not show that the dose was tolerated: the source hardly ever lists a survival T/C far under the control, and the zero likely stands for such cases as well. Survivors were counted at the toxicity check, usually on the fifth day, unless a day is given; later deaths do not show. Schedules are NCI's codes, read here as Q, the interval in days (D) or hours (H), X, the number of doses. Some entries were tested several times; their values stand side by side, smallest first. Where survival is the endpoint, this PubChem deposit counts one and a half times the control or more as active, and values a quarter to a half above the control carry no call in these data; other NCI protocols may use other cut-offs.

Test system: P388 leukemia ip, CD2F1 mice, survival T/C
Assay: NCI In Vivo Anticancer Drug Screen. Data for tumor model P388 Leukemia (intraperitoneal) in CD2F1 (CDF1) mice
Conditions: T/C endpoint: median survival time, higher T/C = longer survival
[1] = dose: 200.0 mg/kg/injection, schedule: Q01DX009 (ip), vehicle: Klucel (hydroxypropylcellulose) (HPC)
[2] = dose: 120.0 mg/kg/injection, schedule: Q01DX005 (ip), vehicle: saline with Tween-80
[3] = dose: 240.0 mg/kg/injection, schedule: Q01DX005 (ip), vehicle: saline with Tween-80
[4] = dose: 200.0 mg/kg/injection, schedule: Q01DX009 (ip), vehicle: saline
[5] = dose: 100.0 mg/kg/injection, schedule: Q01DX005 (ip), vehicle: saline with Tween-80
[6] = dose: 200.0 mg/kg/injection, schedule: Q01DX005 (ip), vehicle: saline with Tween-80
[7] = dose: 100.0 mg/kg/injection, schedule: Q01DX005 (ip), vehicle: Klucel (hydroxypropylcellulose) (HPC)
[8] = dose: 120.0 mg/kg/injection, schedule: Q01DX005 (ip), vehicle: Klucel (hydroxypropylcellulose) (HPC)
[9] = dose: 240.0 mg/kg/injection, schedule: Q01DX005 (ip), vehicle: Klucel (hydroxypropylcellulose) (HPC)
[10] = dose: 400.0 mg/kg/injection, schedule: Q04DX002 (ip), vehicle: saline with Tween-80

Compound: CN(C)c1ccc(NN=O)nc1
- T/C (dose: 3.13 mg/kg/injection, schedule: Q01DX009 (ip), vehicle: water): 137 and 144 % of control
- T/C (dose: 6.25 mg/kg/injection, schedule: Q01DX009 (ip), vehicle: water): 139 % of control
- T/C (dose: 12.5 mg/kg/injection, schedule: Q01DX009 (ip), vehicle: water): 141 % of control
- survivor count (dose: 25.0 mg/kg/injection, schedule: Q01DX009 (ip), vehicle: water): 5 of 6 and 6 of 6
- survivor count (dose: 50.0 mg/kg/injection, schedule: Q01DX009 (ip), vehicle: water): 0 of 6

Compound: [O-][N+]12CCCCC1C1CC(C2)C2CCCC(c3ccccc3)N2C1 (configuration not stated)
- T/C (dose: 50.0 mg/kg/injection, schedule: Q01DX009 (ip), vehicle: Klucel (hydroxypropylcellulose) (HPC)): 97, 102, 124, 126 % of control
- survivor count (dose: 100.0 mg/kg/injection, schedule: Q01DX009 (ip), vehicle: Klucel (hydroxypropylcellulose) (HPC)): 1 of 6 and 3 of 6
- survivor count [1]: 0 of 6

Compound: C/C(=N\N1CN(C(C)C(=O)O)P(Nc2ncn[nH]2)N=C1N)c1cccs1 (configuration not stated)
- survivor count (dose: 60.0 mg/kg/injection, schedule: Q01DX005 (ip), vehicle: saline with Tween-80): 2 of 6
- survivor count [2]: 0 of 6
- survivor count [3]: 0 of 6

Compound: COC(=S)SCN(CSC(=S)OC)c1ccccc1Cl
- T/C (dose: 264.0 mg/kg/injection, schedule: Q01DX009 (ip), vehicle: saline with Tween-80): 131 % of control
- T/C (dose: 400.0 mg/kg/injection, schedule: Q01DX009 (ip), vehicle: saline with Tween-80): 127 % of control
- T/C (dose: 600.0 mg/kg/injection, schedule: Q01DX009 (ip), vehicle: saline with Tween-80): 140 % of control

Compound: CC(C)(C)N(N)Cc1ccccc1
- survivor count [4]: 1 of 6

Compound: CC(NNC(=S)N(C)C1CCCCC1)c1cc2ccccc2cn1 (configuration not stated)
- T/C (dose: 25.0 mg/kg/injection, schedule: Q01DX005 (ip), vehicle: saline with Tween-80): 137 % of control
- survivor count [5]: 6 of 6
- survivor count [6]: 0 of 6

Compound: CCOC1OCN(c2ccccc2)CC1(C)C (configuration not stated)
- T/C (dose: 50.0 mg/kg/injection, schedule: Q01DX009 (ip), vehicle: saline with Tween-80): 126 % of control
- T/C (dose: 100.0 mg/kg/injection, schedule: Q01DX009 (ip), vehicle: saline with Tween-80): 138 % of control
- T/C (dose: 200.0 mg/kg/injection, schedule: Q01DX009 (ip), vehicle: saline with Tween-80): 147 % of control

Compound: CC12CC3CC(C)(C1)CC(SCCN)(C3)C2
- survivor count [3]: 4 of 6

Compound: O=[N+]([O-])c1ccc(N2c3ccccc3SC2c2ccco2)c([N+](=O)[O-])c1 (configuration not stated)
- survivor count (dose: 50.0 mg/kg/injection, schedule: Q01DX005 (ip), vehicle: saline with Tween-80): 5 of 5
- survivor count [5]: 5 of 5
- survivor count [6]: 5 of 5

Compound: COC(=O)/C(=C1/OC(=O)C(c2ccccc2)=C1O)c1ccccc1
- survivor count (dose: 100.0 mg/kg/injection, schedule: Q01DX009 (ip), vehicle: saline): 1 of 3
- survivor count [4]: 0 of 3

Compound: COc1cc(C=Nc2ccc(-n3ccnc3C)cc2)ccc1N(CCCl)CCCl
- T/C (dose: 2.5 mg/kg/injection, schedule: Q01DX009 (ip), vehicle: Klucel (hydroxypropylcellulose) (HPC)): 136 % of control

Compound: O=C1C=C(O)C(=O)C(CC2=C(O)C(=O)C=C(O)C2=O)=C1O
- survivor count [7]: 0 of 6, 3 of 6, 5 of 6
- survivor count (dose: 200.0 mg/kg/injection, schedule: Q01DX005 (ip), vehicle: Klucel (hydroxypropylcellulose) (HPC)): 0 of 6

Compound: COc1ccc(-n2c3c(c4c(N)ncnc42)CCCC3)cc1
- survivor count [3]: 6 of 6

Compound: CC1(C)N=C(N)N=C(N)N1c1cccc(CSc2ccccc2)c1
- survivor count (dose: 60.0 mg/kg/injection, schedule: Q01DX005 (ip), vehicle: Klucel (hydroxypropylcellulose) (HPC)): 0 of 6
- survivor count [8]: 0 of 6
- survivor count [9]: 0 of 6

Compound: COc1cc(C2C(C(C)=O)=C(C)Oc3cc4c(cc32)OCO4)cc(OC)c1OC (configuration not stated)
- survivor count [2]: 6 of 6

Compound: CC(C)NC(=O)OCc1c(COC(=O)NC(C)C)c(-c2ccc(Cl)c(Cl)c2)n2c1CC(OC(=O)CN(C)C)C2 (configuration not stated)
- T/C (dose: 10.0 mg/kg/injection, schedule: Q01DX009 (ip), vehicle: water): 128 % of control
- T/C (dose: 20.0 mg/kg/injection, schedule: Q01DX009 (ip), vehicle: distilled water + Tween-80): 141 % of control
- T/C (dose: 20.0 mg/kg/injection, schedule: Q01DX009 (ip), vehicle: water): 146 % of control
- T/C (dose: 40.0 mg/kg/injection, schedule: Q01DX009 (ip), vehicle: distilled water + Tween-80): 141 % of control
- T/C (dose: 40.0 mg/kg/injection, schedule: Q01DX009 (ip), vehicle: water): 144 % of control
- T/C (dose: 80.0 mg/kg/injection, schedule: Q01DX009 (ip), vehicle: distilled water + Tween-80): 140 % of control

Compound: CC1CC23C4CCCN2CC2OC2C13C1CC4OC1=O (configuration not stated)
- survivor count [1]: 0 of 6

Compound: O=C(CCCN1CCC(O)(c2cccc(C(F)(F)F)c2)CC1)c1ccc(F)cc1
- survivor count (dose: 150.0 mg/kg/injection, schedule: Q04DX003 (ip), vehicle: Klucel (hydroxypropylcellulose) (HPC)): 0 of 6

Compound: Oc1ccc(O)c(/C=N/NC(=S)NC2CC3CC2C2C=CCC32)c1 (configuration not stated)
- survivor count (dose: 400.0 mg/kg/injection, schedule: Q01DX009 (ip), vehicle: olive oil, sesame oil, peanut oil): 2 of 6

Compound: c1ccc2c(c1)ccc1ncc3ncccc3c12
- survivor count [10]: 1 of 6

Compound: COc1cc2ccc1-c1cc(ccc1O)CC1c3cc4c(cc3CCN1C)Oc1c(OC)cc3c(c1O4)C(C2)N(C)CC3 (configuration not stated)
- survivor count [8]: 4 of 6
- survivor count [9]: 0 of 6

Compound: Cc1ccc(S(=O)(=O)C(CC(=O)CCN2CCCCC2)c2ccccc2)cc1 (configuration not stated)
- survivor count [4]: 3 of 6

Compound: C[C@@]12CCCC1=[N+]1CCc3ccccc3[C@@H]1CC2=O
- survivor count (dose: 400.0 mg/kg/injection, schedule: Q04DX002 (ip), vehicle: Klucel (hydroxypropylcellulose) (HPC)): 0 of 6

Compound: c1ccc(Nc2ccncc2)cc1
- survivor count (dose: 25.0 mg/kg/injection, schedule: Q01DX009 (ip), vehicle: suspension in saline): 4 of 6
- survivor count (dose: 50.0 mg/kg/injection, schedule: Q01DX009 (ip), vehicle: suspension in saline): 2 of 6
- survivor count (dose: 100.0 mg/kg/injection, schedule: Q01DX009 (ip), vehicle: suspension in saline): 1 of 6
- survivor count (dose: 200.0 mg/kg/injection, schedule: Q01DX009 (ip), vehicle: suspension in saline): 0 of 6

Compound: O=C(Nc1ccccc1)OC(CN1CCCCC1)C(CN1CCCCC1)OC(=O)Nc1ccccc1 (configuration not stated)
- survivor count (dose: 50.0 mg/kg/injection, schedule: Q01DX005 (ip), vehicle: Klucel (hydroxypropylcellulose) (HPC)): 5 of 5 and 6 of 6
- survivor count [7]: 5 of 5

Compound: CCCCCCCC(=O)c1c(O)c2ccccc2oc1=O
- survivor count [2]: 5 of 6
- survivor count [3]: 3 of 6

Compound: CCCCCCC[n+]1ccccc1C#N
- survivor count (dose: 200.0 mg/kg/injection, schedule: Q04DX003 (ip), vehicle: saline with Tween-80): 2 of 6
- survivor count (dose: 400.0 mg/kg/injection, schedule: Q04DX003 (ip), vehicle: saline with Tween-80): 0 of 6

Compound: O=C(CCN1CC1)OCCOC(=O)CCN1CC1
- T/C (dose: 33.0 mg/kg/injection, schedule: Q04DX003 (ip), vehicle: saline with Tween-80): 133 % of control
- survivor count (dose: 100.0 mg/kg/injection, schedule: Q04DX003 (ip), vehicle: saline): 6 of 6

Compound: COC1=C(C)C(=O)c2[nH]ccc2C1=O
- survivor count (dose: 200.0 mg/kg/injection, schedule: Q04DX002 (ip), vehicle: saline with Tween-80): 4 of 6
- survivor count [10]: 0 of 6

Compound: CCOc1c(Br)cc(/C=C(\C)[N+](=O)[O-])cc1OC
- survivor count [3]: 4 of 6

Compound: C/C(=N\N1CN(C(C)C(=O)O)P(N(CCO)CCO)N=C1N)c1cccs1 (configuration not stated)
- survivor count (dose: 60.0 mg/kg/injection, schedule: Q01DX005 (ip), vehicle: saline): 0 of 6
- survivor count (dose: 120.0 mg/kg/injection, schedule: Q01DX005 (ip), vehicle: saline): 0 of 6
- survivor count (dose: 240.0 mg/kg/injection, schedule: Q01DX005 (ip), vehicle: saline): 0 of 6
